Test results reported in the supplement of paper PMC10849652.
The other results are listed elsewhere or left out. Residues, ends and D or L forms follow the SMILES beside them. *: point of attachment. Cbz = O=C(OCc1ccccc1)*

By UniProt entry, the sequences of proteins in these tests, tags left out. Where a name states a change or a piece, a line headed by the entry shows the natural chain unless it says otherwise.
UniProt Q12980: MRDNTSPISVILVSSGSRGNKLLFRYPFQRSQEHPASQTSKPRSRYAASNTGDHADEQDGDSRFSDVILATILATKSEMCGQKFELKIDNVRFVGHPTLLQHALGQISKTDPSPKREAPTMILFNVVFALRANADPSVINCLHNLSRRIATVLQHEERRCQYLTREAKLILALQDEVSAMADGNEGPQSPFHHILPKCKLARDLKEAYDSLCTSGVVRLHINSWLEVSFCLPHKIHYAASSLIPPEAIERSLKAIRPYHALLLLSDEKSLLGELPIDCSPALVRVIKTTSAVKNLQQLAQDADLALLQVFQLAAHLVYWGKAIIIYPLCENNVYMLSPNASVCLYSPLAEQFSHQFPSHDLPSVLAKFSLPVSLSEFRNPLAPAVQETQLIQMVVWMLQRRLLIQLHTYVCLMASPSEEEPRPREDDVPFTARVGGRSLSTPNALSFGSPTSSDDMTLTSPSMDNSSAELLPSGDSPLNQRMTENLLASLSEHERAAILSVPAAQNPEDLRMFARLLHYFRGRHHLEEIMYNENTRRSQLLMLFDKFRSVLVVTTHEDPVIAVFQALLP
UniProt O00221: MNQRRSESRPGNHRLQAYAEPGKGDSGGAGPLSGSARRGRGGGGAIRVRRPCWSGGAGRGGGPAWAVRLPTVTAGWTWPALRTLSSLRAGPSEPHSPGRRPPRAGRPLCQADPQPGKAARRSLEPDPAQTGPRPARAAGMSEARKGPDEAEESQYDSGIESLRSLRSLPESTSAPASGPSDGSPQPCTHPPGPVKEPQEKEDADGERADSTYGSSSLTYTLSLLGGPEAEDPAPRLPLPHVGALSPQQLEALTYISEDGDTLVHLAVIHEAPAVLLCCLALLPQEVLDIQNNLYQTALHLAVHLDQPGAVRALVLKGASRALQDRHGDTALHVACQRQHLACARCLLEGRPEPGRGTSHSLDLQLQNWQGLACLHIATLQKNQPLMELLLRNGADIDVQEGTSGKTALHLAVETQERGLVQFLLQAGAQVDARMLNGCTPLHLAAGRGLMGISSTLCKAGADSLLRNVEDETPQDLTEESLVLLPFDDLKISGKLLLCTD
UniProt P25963: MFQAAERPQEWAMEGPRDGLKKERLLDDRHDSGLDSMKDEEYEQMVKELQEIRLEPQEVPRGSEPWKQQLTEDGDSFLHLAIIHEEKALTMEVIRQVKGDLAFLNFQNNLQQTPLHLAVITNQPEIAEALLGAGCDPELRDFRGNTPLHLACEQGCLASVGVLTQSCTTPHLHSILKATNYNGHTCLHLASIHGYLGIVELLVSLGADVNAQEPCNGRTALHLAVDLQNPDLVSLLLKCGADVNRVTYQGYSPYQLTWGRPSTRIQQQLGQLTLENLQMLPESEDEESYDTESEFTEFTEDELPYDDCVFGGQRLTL
UniProt O00746: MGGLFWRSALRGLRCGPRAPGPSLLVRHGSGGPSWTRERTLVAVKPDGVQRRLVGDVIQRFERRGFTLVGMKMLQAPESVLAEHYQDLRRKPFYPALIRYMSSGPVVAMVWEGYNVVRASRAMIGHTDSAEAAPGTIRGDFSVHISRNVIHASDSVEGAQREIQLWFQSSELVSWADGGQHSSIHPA
UniProt Q8NEJ9: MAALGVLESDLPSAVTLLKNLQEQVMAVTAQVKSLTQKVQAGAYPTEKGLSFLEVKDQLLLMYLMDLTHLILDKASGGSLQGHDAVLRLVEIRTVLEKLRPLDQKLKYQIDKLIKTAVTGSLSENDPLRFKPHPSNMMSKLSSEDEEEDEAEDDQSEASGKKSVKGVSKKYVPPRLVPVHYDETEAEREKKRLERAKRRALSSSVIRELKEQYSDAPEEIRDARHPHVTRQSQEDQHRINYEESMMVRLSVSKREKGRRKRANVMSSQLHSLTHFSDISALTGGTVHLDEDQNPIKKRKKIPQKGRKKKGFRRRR
UniProt P04150: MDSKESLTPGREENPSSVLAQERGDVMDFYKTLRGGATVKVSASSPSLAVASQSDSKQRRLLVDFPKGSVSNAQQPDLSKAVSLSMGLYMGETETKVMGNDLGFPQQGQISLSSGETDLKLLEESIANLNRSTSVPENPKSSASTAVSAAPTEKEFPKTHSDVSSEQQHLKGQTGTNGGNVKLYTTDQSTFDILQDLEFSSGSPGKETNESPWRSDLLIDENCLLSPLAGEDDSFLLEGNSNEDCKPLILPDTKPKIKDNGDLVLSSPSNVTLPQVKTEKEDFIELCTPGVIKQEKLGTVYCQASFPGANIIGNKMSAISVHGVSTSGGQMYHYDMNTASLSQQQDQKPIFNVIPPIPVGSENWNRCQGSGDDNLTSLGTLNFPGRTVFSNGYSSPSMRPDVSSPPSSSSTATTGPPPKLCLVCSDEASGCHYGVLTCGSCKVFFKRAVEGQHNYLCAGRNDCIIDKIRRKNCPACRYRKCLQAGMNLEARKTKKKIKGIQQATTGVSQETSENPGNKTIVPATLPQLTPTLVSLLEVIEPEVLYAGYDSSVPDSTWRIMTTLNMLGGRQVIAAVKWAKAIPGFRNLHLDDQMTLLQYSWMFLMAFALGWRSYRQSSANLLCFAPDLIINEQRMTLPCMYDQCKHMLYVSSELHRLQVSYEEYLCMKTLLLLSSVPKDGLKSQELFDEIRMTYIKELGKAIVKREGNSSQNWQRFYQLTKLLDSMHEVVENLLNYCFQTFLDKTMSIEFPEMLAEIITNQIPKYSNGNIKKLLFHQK
UniProt Q9NWW6: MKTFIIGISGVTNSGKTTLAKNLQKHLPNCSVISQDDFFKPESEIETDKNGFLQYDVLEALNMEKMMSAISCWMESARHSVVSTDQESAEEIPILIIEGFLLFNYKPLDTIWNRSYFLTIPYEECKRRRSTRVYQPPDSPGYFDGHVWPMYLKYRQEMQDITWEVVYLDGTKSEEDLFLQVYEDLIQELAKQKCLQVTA
UniProt P30414: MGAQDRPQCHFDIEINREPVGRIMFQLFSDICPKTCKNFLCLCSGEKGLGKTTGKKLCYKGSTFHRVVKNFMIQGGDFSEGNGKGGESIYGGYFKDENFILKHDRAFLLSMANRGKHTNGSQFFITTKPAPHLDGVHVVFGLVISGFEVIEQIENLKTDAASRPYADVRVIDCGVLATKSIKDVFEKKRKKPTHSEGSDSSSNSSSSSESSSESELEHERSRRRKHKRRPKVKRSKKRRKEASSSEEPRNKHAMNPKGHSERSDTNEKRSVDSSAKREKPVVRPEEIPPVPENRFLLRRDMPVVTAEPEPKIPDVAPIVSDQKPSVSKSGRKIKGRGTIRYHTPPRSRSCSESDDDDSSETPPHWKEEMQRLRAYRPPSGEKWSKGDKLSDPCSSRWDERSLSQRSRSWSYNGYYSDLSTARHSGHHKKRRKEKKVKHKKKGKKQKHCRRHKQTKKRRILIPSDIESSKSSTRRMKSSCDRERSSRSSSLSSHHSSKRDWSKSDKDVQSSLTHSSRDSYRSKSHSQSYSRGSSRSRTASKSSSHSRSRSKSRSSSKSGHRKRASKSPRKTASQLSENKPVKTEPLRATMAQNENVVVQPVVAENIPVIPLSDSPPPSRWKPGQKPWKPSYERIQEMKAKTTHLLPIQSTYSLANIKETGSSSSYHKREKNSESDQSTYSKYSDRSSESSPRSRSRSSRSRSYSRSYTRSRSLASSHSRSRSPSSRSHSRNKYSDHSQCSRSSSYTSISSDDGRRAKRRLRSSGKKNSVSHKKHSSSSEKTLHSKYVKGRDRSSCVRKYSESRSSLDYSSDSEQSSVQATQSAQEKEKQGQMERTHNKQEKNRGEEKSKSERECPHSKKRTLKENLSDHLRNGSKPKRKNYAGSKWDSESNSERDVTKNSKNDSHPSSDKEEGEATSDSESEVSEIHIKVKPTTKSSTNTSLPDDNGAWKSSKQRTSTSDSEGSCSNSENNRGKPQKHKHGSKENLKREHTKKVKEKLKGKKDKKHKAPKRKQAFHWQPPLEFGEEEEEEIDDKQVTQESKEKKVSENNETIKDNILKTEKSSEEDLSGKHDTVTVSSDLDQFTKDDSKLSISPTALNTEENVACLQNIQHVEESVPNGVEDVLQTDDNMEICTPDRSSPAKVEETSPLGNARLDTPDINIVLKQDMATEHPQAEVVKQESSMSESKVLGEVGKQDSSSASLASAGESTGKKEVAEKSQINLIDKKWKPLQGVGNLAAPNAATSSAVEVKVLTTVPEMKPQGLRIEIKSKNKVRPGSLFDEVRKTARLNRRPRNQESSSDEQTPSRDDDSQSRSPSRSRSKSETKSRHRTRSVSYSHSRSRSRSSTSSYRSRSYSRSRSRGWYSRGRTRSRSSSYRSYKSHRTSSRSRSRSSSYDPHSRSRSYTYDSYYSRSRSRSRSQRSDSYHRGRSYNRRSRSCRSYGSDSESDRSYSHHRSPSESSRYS
UniProt Q92859: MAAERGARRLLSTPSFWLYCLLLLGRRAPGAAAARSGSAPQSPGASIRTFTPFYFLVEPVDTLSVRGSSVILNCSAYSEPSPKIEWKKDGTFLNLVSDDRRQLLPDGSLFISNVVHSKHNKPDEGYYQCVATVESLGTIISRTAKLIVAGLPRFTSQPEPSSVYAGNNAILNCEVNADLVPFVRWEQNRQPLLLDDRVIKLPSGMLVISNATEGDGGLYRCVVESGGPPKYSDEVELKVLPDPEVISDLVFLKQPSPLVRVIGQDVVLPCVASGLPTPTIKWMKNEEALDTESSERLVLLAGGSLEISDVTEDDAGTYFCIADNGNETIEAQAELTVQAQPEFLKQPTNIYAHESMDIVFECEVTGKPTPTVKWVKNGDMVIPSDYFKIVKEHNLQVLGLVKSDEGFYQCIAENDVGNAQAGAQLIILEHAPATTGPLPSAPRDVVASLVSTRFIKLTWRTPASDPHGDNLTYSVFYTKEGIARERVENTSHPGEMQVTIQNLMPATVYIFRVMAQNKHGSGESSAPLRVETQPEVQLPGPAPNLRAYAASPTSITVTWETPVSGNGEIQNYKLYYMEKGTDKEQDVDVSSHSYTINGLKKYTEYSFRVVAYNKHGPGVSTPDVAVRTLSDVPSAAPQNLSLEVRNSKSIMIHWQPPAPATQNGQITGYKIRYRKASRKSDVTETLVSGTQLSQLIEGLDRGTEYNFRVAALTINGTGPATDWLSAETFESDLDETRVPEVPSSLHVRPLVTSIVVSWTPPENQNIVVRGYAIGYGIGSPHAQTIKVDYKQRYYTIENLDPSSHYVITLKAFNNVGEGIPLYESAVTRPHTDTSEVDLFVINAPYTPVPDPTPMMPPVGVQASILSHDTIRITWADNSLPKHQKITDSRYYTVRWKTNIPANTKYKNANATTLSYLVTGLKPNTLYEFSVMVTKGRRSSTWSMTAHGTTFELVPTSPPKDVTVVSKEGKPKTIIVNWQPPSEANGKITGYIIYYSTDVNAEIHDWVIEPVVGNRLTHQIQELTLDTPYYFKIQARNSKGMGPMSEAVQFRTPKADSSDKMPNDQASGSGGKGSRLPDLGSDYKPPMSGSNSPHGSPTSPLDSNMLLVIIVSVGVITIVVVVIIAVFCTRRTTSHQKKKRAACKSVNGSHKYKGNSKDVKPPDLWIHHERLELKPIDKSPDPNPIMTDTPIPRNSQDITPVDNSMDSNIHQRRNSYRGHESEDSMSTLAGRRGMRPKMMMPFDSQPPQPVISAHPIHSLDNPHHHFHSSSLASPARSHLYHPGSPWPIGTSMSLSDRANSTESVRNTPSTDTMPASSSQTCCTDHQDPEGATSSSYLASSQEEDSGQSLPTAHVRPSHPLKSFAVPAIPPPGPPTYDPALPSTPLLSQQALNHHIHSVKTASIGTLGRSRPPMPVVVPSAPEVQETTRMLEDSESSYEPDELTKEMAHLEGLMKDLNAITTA
UniProt Q8IVI9: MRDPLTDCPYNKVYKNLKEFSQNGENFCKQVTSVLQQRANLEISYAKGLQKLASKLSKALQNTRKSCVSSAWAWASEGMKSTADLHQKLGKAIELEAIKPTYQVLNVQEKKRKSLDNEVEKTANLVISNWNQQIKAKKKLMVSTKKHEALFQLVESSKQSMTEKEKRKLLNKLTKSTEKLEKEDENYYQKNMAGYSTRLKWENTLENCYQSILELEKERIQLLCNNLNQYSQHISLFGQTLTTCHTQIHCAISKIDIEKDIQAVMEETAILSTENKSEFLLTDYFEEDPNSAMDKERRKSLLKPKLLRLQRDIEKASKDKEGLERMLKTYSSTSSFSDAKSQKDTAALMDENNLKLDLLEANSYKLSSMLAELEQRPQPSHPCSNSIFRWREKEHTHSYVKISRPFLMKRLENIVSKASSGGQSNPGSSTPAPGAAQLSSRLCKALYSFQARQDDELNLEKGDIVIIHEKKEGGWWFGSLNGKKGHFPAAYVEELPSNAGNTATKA
UniProt Q8IXM6: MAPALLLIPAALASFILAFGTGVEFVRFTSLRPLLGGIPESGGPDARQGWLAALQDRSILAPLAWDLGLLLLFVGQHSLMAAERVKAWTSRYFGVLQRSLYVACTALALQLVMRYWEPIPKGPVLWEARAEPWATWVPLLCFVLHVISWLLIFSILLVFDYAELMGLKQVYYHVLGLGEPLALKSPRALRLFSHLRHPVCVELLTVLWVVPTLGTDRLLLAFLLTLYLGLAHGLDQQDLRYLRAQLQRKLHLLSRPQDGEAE

Columns and labels:
Experiment in all cases: log2 fold change, soluble protein after heating vs DMSO (PISA); higher = thermal stabilisation; K562 cells, 10 uM, 30 min; active = over 0.2 and 3.5 SD of the protein, either way, in both replicates (recomputed)
[1] = compound: CC(C)C1=C2N=C(C=C(N2N=C1)NCC3=CC=CC=C3)NCCCCCCN
Method in brief: (§1)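 K562 cells at 2×10^6 cells/mL were exposed to 10 μM compound for 30 min, then aliquots were heated for 3 min across 48°C-58°C, pooled, and extracted in PBS containing 0.5% NP-40 at 4°C. The supernatant after 21,000xg for 90 min was taken as soluble protein and measured by TMTpro 16plex LC-MS/MS with channel sums equalised. Thermal stability is reported relative to control samples, with values from duplicates. Fold changes are given on a log2 scale.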

givinostat = compound: CCN(CC)Cc1ccc2cc(COC(=O)Nc3ccc(C(=O)NO)cc3)ccc2c1 [givinostat]
Method in brief: as §1

IRAK-1-4 Inhibitor I = compound: C1COCCN1CCN2C3=CC=CC=C3N=C2NC(=O)C4=CC(=CC=C4)[N+](=O)[O-] [IRAK-1-4 Inhibitor I]
Method in brief: as §1

[2] = compound: CC(=O)c1cnc2ccc(-c3cc(Cl)c(O)c(Cl)c3)nc2c1N[C@H]1CC[C@H](CN(C)C)CC1
Method in brief: as §1

ralimetinib = compound: CC(C)(C)Cn1c(N)nc2ccc(-c3[nH]c(C(C)(C)C)nc3-c3ccc(F)cc3)nc21 [ralimetinib]
Method in brief: as §1

[3] = compound: CC(C)(O)CC(=O)NCCn1ccc2ncnc(Nc3ccc(Oc4cccc(C(F)(F)F)c4)c(Cl)c3)c21
Method in brief: as §1

[4] = compound: CC(C)C[C@@H](C=O)NC(=O)[C@H](CC(C)C)NC(=O)[C@H](CC(C)C)NC(=O)OCc1ccccc1
Method in brief: as §1

pinometostat = compound: CC(C)N(C[C@H]1O[C@@H](n2cnc3c(N)ncnc32)[C@H](O)[C@@H]1O)[C@H]1C[C@@H](CCc2nc3cc(C(C)(C)C)ccc3[nH]2)C1 [pinometostat]
Method in brief: as §1

[5] = compound: CC1=C(C(CC(=O)N1)C2=CC=C(C=C2)C(F)(F)F)C(=O)NC3=C(C=C4C(=C3)C=NN4)F
Method in brief: as §1

[6] = compound: CC1=C(C2=C(C=C1)C(=O)C3=CC=CC=C3N2CCCN)C
Method in brief: as §1

[7] = compound: CC1=C(C=C(C=C1)NC(=O)C2=CC(=CC=C2)C(C)(C)C#N)NC3=CC4=C(C=C3)N=CN(C4=O)C
Method in brief: as §1

[8] = compound: CC1=C(C=C(C=C1)NC(=O)C2=CC(=CC=C2)N(C)C)NC(=O)C3=CC=C(C=C3)O
Method in brief: as §1

[9] = compound: CC1=CC=C(C=C1)SC2=C3C=C(SC3=CN=C2)C(=O)N
Method in brief: as §1

[10] = compound: CC1=NC(=CC=C1)C2=C(N=C(N2)C(C)(C)C)C3=CC4=NC=CN=C4C=C3
Method in brief: as §1

Nexturastat A = compound: CCCCN(Cc1ccc(C(=O)NO)cc1)C(=O)Nc1ccccc1 [Nexturastat A]
Method in brief: as §1

vemurafenib = compound: CCCS(=O)(=O)Nc1ccc(F)c(C(=O)c2c[nH]c3ncc(-c4ccc(Cl)cc4)cc23)c1F [vemurafenib]
Method in brief: as §1

[11] = compound: CCCS(=O)(=O)Nc1ccc(F)c(C(=O)c2c[nH]c3ncc(Cl)cc23)c1F
Method in brief: as §1

[12] = compound: CCCc1cc(C)[nH]c(=O)c1CNC(=O)c1cc(-c2ccnc(N3CCN(C)CC3)c2)cc2c1cnn2C(C)C
Method in brief: as §1

ibrutinib = compound: C=CC(=O)N1CCC[C@@H](n2nc(-c3ccc(Oc4ccccc4)cc3)c3c(N)ncnc32)C1 [ibrutinib]
Method in brief: as §1

barasertib = compound: CCN(CCCOc1ccc2c(Nc3cc(CC(=O)Nc4cccc(F)c4)[nH]n3)ncnc2c1)CCOP(=O)(O)O [barasertib]
Method in brief: as §1

Measured: log2 fold change

NPRL3 (UniProt Q12980)
inactive: [1] -0.264 | givinostat -0.189

NFKBIE (UniProt O00221)
inactive: IRAK-1-4 Inhibitor I 0.087 | [2] 0.009 | ralimetinib 0.061 | [3] -0.127 | [1] 0.154 | [4] 0.033 | pinometostat 0.017 | [5] 0.033 | [6] 0.029 | [7] 0.095 | [8] 0.069 | [9] 0.044 | [10] -0.021 | Nexturastat A 0 | vemurafenib 0.052 | [11] -0.137 | [12] 0.104 | givinostat -0.009

NOTCH2 (UniProt Q04721)
inactive: ibrutinib -0.27 | [2] -0.114 | [1] -0.336 | [6] 0.046 | givinostat -0.061 | barasertib -0.014

NFKBIA (UniProt P25963)
inactive: [1] -0.589 | [7] 0.101 | vemurafenib 0.137 | givinostat 0.038

NSA2 (UniProt O95478)
inactive: ibrutinib -0.113 | [3] 0.245 | Nexturastat A 0.29 | barasertib 0.104

NME4 (UniProt O00746)
inactive: ralimetinib 0.004 | [1] -0.119 | [4] 0.034 | [8] -0.057 | [12] -0.023 | givinostat -0.063

NGDN (UniProt Q8NEJ9)
inactive: ralimetinib -0.126 | [4] 0.189 | [6] -0.098 | [7] -0.091 | [8] 0.087

NR3C1 isoform 3 (UniProt P04150)
inactive: IRAK-1-4 Inhibitor I 0.267 | [2] 0.076 | [3] -0.21 | [1] -0.669 | pinometostat 0.22 | [5] 0.041 | [6] 0.046 | [9] -0.021 | [10] -0.102 | Nexturastat A 0.114 | [11] -0.149 | [12] 0.136 | givinostat 0.075

NGRN (UniProt Q9NPE2)
inactive: ibrutinib 0.037 | [2] -0.155 | [3] 0 | [1] -0.112 | [5] -0.083 | [6] 0.163 | [7] -0.004 | [9] 0.047 | Nexturastat A 0.143 | vemurafenib -0.025 | [11] -0.012 | [12] 0.006 | givinostat -0.003 | barasertib 0.016

NOLC1 isoform 3 (UniProt Q14978)
inactive: [1] 0.151 | givinostat -0.02

NMRK1 (UniProt Q9NWW6)
inactive: [1] -0.131 | givinostat 0.138

NKTR (UniProt P30414)
inactive: ibrutinib -0.191 | [1] 0.084 | [9] -0.041 | [11] -0.4 | [12] -0.045 | givinostat 0.532 | barasertib 0.042

Copied from the entries so far (2 entries):
NME4 (UniProt O00746)
inactive: ralimetinib 0.004 | [1] -0.119 | [4] 0.034 | [8] -0.057 | [12] -0.023 | givinostat -0.063

NGDN (UniProt Q8NEJ9)
inactive: ralimetinib -0.126 | [4] 0.189 | [6] -0.098 | [7] -0.091 | [8] 0.087

(list continues)

NEURL4 (UniProt Q96JN8)
inactive: ibrutinib 0.23 | [2] 0.013 | ralimetinib 0.013 | [1] 0.373 | [4] 0.113 | [7] -0.019 | [8] 0.492 | vemurafenib 0.001 | givinostat 0.064 | barasertib -0.178

NLRX1 (UniProt Q86UT6)
inactive: IRAK-1-4 Inhibitor I 0.177 | [3] 0.045 | [1] 0.04 | pinometostat 0.196 | [5] -0.071 | [6] -0.025 | [7] 0.111 | [9] -0.045 | [10] -0.335 | Nexturastat A -0.052 | [11] 0.087 | givinostat 0.018

NEO1 (UniProt Q92859)
inactive: [2] -0.177 | ralimetinib -0.034 | [4] 0.017 | [5] 0.062 | [6] -0.069 | [8] 0.122 | vemurafenib 0.039 | [12] -0.216

NOSTRIN isoform 4 (UniProt Q8IVI9)
inactive: [2] 0.106 | ralimetinib 0.286 | [1] -0.486 | [4] 0.456 | [5] -0.094 | [7] 0.093 | [8] -0.053 | [12] 0.157 | givinostat 0.302

NRM (UniProt Q8IXM6)
inactive: ibrutinib 0.059 | [2] -0.005 | [3] -0.143 | [1] -0.193 | [5] -0.005 | [6] 0.136 | [7] -0.021 | [9] -0.002 | Nexturastat A -0.091 | vemurafenib 0.088 | [11] 0.063 | [12] -0.03 | givinostat -0.015 | barasertib -0.005
